No constants are given. Whether binding was seen depends on the method and setting. Binding seen in cells or lysates may run through a third protein. Some entries that bind do so weakly or less than the wild type. Where a sequence is shown, tags or fusion partners need not be part of it. Values belong to the substance of their own block, whether it stands above or below them.
Columns and labels:
[1] = biological target: T1, GST-SGK3 (UniProt Q9ERE3); test: pull-down; GST pulldown with purified GST or GST-SGK3 proteins as baits; BRG1 band detected; the source of BRG1 is not told; the paper calls the interaction direct
T1 sequence: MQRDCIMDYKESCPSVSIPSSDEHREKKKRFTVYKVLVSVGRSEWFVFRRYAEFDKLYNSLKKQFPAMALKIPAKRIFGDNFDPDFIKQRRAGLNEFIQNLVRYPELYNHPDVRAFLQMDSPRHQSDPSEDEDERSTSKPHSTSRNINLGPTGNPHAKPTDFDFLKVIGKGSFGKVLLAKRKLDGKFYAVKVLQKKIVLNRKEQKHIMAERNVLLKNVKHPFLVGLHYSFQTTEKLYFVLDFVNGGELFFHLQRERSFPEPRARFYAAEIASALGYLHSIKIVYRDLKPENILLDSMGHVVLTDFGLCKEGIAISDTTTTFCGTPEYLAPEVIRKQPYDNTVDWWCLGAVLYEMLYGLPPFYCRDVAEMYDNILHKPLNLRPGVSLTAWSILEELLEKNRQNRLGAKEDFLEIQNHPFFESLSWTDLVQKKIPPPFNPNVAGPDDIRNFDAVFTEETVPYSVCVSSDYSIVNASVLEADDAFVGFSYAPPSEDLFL

Protein sequences, listed by entry. Tags and fused reporters are not part of them.
UniProt P51532: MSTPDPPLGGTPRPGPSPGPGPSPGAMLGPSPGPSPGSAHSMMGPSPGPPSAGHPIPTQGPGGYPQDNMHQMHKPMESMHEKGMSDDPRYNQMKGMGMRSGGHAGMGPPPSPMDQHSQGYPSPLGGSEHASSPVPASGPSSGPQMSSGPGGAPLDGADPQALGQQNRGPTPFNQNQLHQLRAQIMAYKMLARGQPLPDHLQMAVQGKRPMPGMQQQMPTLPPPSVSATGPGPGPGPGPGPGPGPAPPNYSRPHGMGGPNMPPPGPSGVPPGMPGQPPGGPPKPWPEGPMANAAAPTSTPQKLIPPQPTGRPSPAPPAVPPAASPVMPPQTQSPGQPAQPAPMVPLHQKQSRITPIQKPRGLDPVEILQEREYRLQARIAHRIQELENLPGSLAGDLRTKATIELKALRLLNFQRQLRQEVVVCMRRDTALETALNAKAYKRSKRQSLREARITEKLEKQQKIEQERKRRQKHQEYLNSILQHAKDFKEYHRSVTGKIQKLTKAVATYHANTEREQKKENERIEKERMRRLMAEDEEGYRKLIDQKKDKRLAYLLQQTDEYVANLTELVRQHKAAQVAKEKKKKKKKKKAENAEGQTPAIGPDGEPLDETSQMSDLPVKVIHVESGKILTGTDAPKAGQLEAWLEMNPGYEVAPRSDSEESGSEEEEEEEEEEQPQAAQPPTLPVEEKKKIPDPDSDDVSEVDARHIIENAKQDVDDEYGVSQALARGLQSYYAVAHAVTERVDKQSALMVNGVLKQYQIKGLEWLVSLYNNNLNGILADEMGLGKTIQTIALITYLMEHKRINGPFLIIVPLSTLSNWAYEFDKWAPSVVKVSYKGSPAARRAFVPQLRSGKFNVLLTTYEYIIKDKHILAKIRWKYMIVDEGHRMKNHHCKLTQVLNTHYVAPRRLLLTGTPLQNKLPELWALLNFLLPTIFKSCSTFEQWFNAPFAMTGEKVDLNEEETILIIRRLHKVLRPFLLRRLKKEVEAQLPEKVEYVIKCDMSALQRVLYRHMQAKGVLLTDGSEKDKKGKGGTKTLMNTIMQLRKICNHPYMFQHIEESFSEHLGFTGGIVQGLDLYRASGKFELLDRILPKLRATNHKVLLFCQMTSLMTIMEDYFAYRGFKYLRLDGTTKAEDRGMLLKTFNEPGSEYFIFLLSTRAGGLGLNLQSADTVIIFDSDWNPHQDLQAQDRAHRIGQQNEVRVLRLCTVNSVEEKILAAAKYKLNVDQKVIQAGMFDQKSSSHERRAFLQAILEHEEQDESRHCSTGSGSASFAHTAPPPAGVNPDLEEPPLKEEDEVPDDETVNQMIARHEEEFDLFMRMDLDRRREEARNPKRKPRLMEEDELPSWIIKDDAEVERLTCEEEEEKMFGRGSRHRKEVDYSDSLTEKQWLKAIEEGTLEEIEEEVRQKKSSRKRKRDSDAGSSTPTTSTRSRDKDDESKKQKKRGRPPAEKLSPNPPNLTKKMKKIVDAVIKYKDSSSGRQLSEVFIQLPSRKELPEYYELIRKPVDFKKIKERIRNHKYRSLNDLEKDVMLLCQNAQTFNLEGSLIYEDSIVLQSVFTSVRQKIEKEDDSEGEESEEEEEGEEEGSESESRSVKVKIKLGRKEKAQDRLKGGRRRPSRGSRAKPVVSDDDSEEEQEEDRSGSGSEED
UniProt P70168: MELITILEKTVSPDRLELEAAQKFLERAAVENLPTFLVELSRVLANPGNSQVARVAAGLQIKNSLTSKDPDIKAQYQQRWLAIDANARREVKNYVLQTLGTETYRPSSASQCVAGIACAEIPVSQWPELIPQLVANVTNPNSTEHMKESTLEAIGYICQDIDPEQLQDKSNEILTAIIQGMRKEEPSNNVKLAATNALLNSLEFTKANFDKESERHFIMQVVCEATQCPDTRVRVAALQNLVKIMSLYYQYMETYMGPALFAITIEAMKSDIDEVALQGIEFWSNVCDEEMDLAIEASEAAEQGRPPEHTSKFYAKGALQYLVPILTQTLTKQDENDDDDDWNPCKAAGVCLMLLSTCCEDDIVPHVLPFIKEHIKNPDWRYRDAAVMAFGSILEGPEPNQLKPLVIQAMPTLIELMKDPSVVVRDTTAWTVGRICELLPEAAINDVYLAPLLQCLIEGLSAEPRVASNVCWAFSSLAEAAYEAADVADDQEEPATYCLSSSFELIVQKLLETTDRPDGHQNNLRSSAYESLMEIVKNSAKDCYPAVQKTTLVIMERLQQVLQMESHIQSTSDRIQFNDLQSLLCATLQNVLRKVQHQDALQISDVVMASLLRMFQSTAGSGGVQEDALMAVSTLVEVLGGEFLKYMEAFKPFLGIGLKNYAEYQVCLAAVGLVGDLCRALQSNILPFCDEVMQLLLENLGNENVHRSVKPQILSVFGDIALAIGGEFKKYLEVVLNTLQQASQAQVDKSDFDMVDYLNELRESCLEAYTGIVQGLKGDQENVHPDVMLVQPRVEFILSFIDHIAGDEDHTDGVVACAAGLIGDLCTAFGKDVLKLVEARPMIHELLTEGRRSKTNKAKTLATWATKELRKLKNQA
UniProt Q3TKT4: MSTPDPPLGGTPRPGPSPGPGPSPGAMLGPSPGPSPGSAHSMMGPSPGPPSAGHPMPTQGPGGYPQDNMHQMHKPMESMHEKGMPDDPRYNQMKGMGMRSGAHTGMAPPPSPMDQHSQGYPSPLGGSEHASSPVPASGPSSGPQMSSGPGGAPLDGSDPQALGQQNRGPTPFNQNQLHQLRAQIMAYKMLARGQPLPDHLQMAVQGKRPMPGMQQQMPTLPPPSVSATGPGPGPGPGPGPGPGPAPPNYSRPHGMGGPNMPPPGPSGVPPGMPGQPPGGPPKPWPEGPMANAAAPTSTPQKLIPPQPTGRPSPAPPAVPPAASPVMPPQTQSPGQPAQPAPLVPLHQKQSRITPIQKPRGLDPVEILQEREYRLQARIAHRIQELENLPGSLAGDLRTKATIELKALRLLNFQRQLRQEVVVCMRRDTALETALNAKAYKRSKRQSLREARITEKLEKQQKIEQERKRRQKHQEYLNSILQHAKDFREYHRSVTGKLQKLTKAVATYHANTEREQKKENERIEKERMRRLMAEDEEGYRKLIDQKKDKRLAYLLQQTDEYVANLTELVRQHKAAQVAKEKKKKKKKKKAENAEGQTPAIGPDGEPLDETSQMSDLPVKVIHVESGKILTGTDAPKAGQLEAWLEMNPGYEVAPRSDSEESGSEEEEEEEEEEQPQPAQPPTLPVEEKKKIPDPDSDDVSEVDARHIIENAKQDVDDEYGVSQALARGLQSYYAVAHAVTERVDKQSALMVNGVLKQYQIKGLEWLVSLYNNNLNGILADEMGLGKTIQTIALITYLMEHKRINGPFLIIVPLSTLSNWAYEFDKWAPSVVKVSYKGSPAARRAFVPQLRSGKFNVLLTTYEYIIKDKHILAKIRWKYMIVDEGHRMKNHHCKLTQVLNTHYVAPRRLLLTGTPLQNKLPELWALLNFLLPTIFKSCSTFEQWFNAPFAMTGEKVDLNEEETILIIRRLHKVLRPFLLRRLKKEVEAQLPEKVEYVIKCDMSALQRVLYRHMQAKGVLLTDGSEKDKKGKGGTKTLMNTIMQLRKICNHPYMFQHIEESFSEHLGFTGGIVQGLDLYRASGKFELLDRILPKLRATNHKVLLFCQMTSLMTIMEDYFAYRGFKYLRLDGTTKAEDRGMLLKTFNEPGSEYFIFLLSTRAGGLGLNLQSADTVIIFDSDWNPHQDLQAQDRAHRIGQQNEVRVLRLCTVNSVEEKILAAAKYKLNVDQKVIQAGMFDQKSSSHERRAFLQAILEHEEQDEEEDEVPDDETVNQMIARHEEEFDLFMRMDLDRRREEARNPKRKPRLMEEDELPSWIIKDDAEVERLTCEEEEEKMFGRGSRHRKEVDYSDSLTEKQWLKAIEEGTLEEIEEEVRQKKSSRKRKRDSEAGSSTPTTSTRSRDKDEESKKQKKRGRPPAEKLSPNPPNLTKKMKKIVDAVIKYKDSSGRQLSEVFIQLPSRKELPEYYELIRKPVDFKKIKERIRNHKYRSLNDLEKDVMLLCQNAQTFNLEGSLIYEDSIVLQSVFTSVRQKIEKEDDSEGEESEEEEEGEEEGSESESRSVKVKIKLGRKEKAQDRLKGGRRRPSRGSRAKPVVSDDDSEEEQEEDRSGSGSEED

[2] = biological target: T2, serum- and glucocorticoid-induced kinase 3 (SGK3), in co-IP from differentiating cells (UniProt Q9ERE3); test: co-IP; cells treated with MDI for 3 days (Figure 5F), or with or without MDI for 2 days (Figure 5G); the interaction was markedly enhanced by MDI; which partner was precipitated is not told
T2 sequence: T1 sequence

[3] = biological target: T2, serum- and glucocorticoid-induced kinase 3 (SGK3), in co-IP from differentiating cells; test: co-IP; differentiating SVF cells; which partner was precipitated is not told

binding [1]: binds
Substance: BRG1 protein in the GST pulldown assay (from UniProt P51532 1-1647)

binding [2]: binds
Substance: Importin β1 (from UniProt P70168 1-876)

binding [3]: binds
Substance: SMARCA4 (BRG1), core subunit of the BAF (SWI/SNF) complex, in differentiating SVF cells (from UniProt Q3TKT4 1-1613)

Reference: PMC12483569
